Measured data: PubChem BioAssay AID1259285 (Sanger Institute, 2017)
Assay: 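Kinase knock-downs that reduce colorectal cancer cell viability or act with drugs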 (primary screen). Cell system: human HCC56 colorectal cancer cells. Reagents: siRNA pool against human genes. Conditions: DMSO vehicle, or anchor drug BYL719 at 1 µM, cetuximab at 5 µg/ml, or trametinib at 10 nM. Read-out: 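Replicate-averaged viability relative to non-targeting siRNA, expressed as a robust z-score from controls, plus a synergy score for each of three anchor drugs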. Reading the numbers: viability robust z-score, no drug: higher = more viable cells, weaker knock-down effect. Hit rule: 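a knock-down counts as essential if its viability z-score without drug is under -3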. Meaning of the calls: active = essential without drug; inactive = no change without drug.
The deposit covers 794 reagents; shown is a random part of them. Of all reagents, 20 (2.5%) were called active. 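Calls rest on the drug-free arm alone and ignore synergy scores; viability ratios seem to be capped at 1.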 Unmarked entries are inactive. Further read-outs or replicates are left out here. Not stated in the record: the amount of reagent, the time to read-out.

| Target gene | viability robust z-score, no drug |
| --- | --- |
| FLT3 (GeneID 2322) | 0.458 |
| ATP23 (GeneID 91419) | 0.458 |
| BMP2K (GeneID 55589) | 0.458 |
| CAMK4 (GeneID 814) | -0.162 |
| AKAP9 (GeneID 10142) | 0.458 |
| MERTK (GeneID 10461) | 0.458 |
| TNNI3K (GeneID 51086) | 0.458 |
| MARK2 (GeneID 2011) | 0.458 |
| RIPK2 (GeneID 8767) | 0.458 |
| FLT1 (GeneID 2321) | 0.458 |
| DUSP21 (GeneID 63904) | 0.458 |
| HUS1 (GeneID 3364) | 0.458 |
| EPHB4 (GeneID 2050) | -1.34 |
| PRKAA2 (GeneID 5563) | 0.458 |
| STK35 (GeneID 140901) | 0.284 |
| PIP5K1B (GeneID 8395) | 0.458 |
| HK3 (GeneID 3101) | 0.44 |
| PKDCC (GeneID 91461) | 0.458 |
| PASK (GeneID 23178) | 0.458 |
| EPHA1 (GeneID 2041) | 0.458 |

Reformatted: 2 of the entries above.
Target gene	viability robust z-score, no drug
BMP2K (GeneID 55589)	0.458
CAMK4 (GeneID 814)	-0.162
